Source: PubChem BioAssay AID2685 (National Center for Advancing Translational Sciences (NCATS), 2010)
The list shows a part of the results. These are further read-outs of the screen, such as a control signal, another cell line or another target. No call is given for them. Compounds called inactive in the main read-out are mostly missing here. Potencies come from curve fits of mixed quality, noted in brackets.

Test: qHTS Assay for Lipid Storage Modulators in Drosophila S3 Cells;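 as to cell number change: cells counted by Cell Tracker Red CMTPX staining in the red channel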
Settings: BODIPY lipid droplet fluorescence, 18-24 h; for cell number change: measured here: cell count max response, cells fed with added oleic acid
In short: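 Drosophila S3 cells loaded with oleic acid (400 uM, as added) and compounds at several concentrations; lipid droplets imaged by 488-nm laser-scanning cytometry, 500–530 nm intensity and object ratio to cell channel. Percent activity normalized to 20 uM Triacsin C.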

[1] = measured here: lipid fluorescence (Fed channel) AC50, cells fed with added oleic acid
[2] = measured here: cell number channel AC50, cells fed with added oleic acid

| SMILES | cell number change | AC50 [1] | AC50 [2] |
| --- | --- | --- | --- |
| CCCc1cc2c(cc1NC(=O)c1ccccc1F)OCO2 | 16.2% | 0.517 µM [rising, full curve] |  |
| Cc1ccc(-c2cc(C(=O)N/N=C/C=C/c3ccccc3)n[nH]2)s1 | 4.32% | 29.1 µM [rising, single point] |  |
| Cc1cc(Cl)ccc1Oc1ncc(CN2CCN(c3ccccc3)CC2)s1 | 19.5% | 6.51 µM [rising, single point] | 2.59 µM [rising, single point] |
| Cc1ccc(S(=O)(=O)c2ccc(Cl)cc2)cc1S(=O)(=O)NC(C(=O)O)C(C)C (configuration not stated) |  |  | 0.00517 µM [falling, full curve, poor fit] |
| CCN(CC)C(=O)C1CCCN(c2ccc([N+](=O)[O-])cc2/C=N/NC(=O)c2cccc(Br)c2)C1 (configuration not stated) | 74.3% | 18.4 µM [rising, single point] | 29.1 µM [rising, single point] |
| Cc1c(N(C)S(=O)(=O)c2cccc(C(=O)NCC3CCCO3)c2)c(=O)n(-c2ccccc2)n1C (configuration not stated) | -49.3% | 5.8 µM [falling, partial curve] | 20.6 µM [falling, partial curve] |
| O=C(N/N=C/C(Cl)=C/c1ccccc1)c1ccccn1 | 6.41% | 0.058 µM [rising, full curve, poor fit] |  |
| COc1ccccc1N1CCN(C(=O)c2cc3c(s2)CCCCC3)CC1 | 4.69% | 1.16 µM [falling, full curve] |  |
| Cc1[nH]n(-c2cccc(Cl)c2)c(=O)c1C=NCC(C)C | 52.6% | 29.1 µM [rising, single point] | 18.4 µM [rising, single point] |
| CCOC(=O)CSc1nc2sc3c(c2c(=O)n1CC)CC(C)(C)OC3 | -3.03% |  |  |
| Cc1ccc(S(=O)(=O)N(C(=O)c2ccncc2)c2ccc(OC(=O)c3ccncc3)cc2)cc1 | -4.44% | 29.1 µM [falling, partial curve] |  |
| Cc1cc(S(=O)(=O)N(Cc2ccc(C(C)(C)C)cc2)Cc2cccs2)ccc1-n1cnnn1 | -34.1% |  | 2.31 µM [falling, partial curve] |
| CCN(CC)CCNC(=O)c1ccc(NC(=O)c2c(F)cccc2Cl)cc1 | 47.1% |  | 29.1 µM [rising, single point] |
| Cc1cc(C)n(C(=O)c2ccc(NC(=O)C3COc4ccccc4O3)cc2)n1 (configuration not stated) | -17.9% |  |  |
| O=C(Nc1cc(-c2nc3ncccc3o2)ccc1Cl)c1ccco1 | -29% | 1.84 µM [falling, partial curve] |  |
| CCCn1c(SCC(=O)c2[nH]c(C)c(C(C)=O)c2C)n[nH]c1=O | 6.74% |  |  |

Single records (already shown). Values in the order: cell number change	AC50 [1]	AC50 [2]
`Cc1cc(Cl)ccc1Oc1ncc(CN2CCN(c3ccccc3)CC2)s1` is listed as 19.5%	6.51 µM [rising, single point]	2.59 µM [rising, single point]
`Cc1[nH]n(-c2cccc(Cl)c2)c(=O)c1C=NCC(C)C` is listed as 52.6%	29.1 µM [rising, single point]	18.4 µM [rising, single point]
